## Drug screen on melanoma cell lines: apoptosis marker

From a melanoma drug combination screen (doi:10.1371/journal.pone.0140310); values rounded.

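The test systems are human melanoma cell lines, treated with a pair of drugs for 72 h and then stained and imaged. Each value is the cleaved-PARP-positive fraction of nuclei relative to DMSO-treated wells, in %, so that 100 equals the control and higher values mean more apoptosis. Concentrations were fixed for each drug; these are the higher of two levels. These are primary screening values without error estimates. Basal and induced levels differ widely between cell lines.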
An unselected part of the screen is shown.
An entry leaves out what has no value listed here.
A dash means that no value is listed here.

Drugs:
veliparib: C[C@]1(c2nc3c(C(N)=O)cccc3[nH]2)CCCN1 at 7000 nM
sunitinib: CCN(CC)CCNC(=O)c1c(C)[nH]c(/C=C2\C(=O)Nc3ccc(F)cc32)c1C at 2000 nM
vincristine: CC[C@]1(O)C[C@H]2CN(CCc3c([nH]c4ccccc34)[C@@](C(=O)OC)(c3cc4c(cc3OC)N(C=O)[C@H]3[C@@](O)(C(=O)OC)[C@H](OC(C)=O)[C@]5(CC)C=CCN6CC[C@]43[C@@H]65)C2)C1 at 0.5 nM
palbociclib: CC(=O)c1c(C)c2cnc(Nc3ccc(N4CCNCC4)cn3)nc2n(C2CCCC2)c1=O at 200 nM
etoposide: COc1cc([C@@H]2c3cc4c(cc3[C@@H](O[C@@H]3O[C@@H]5CO[C@@H](C)O[C@H]5[C@H](O)[C@H]3O)[C@H]3COC(=O)[C@H]23)OCO4)cc(OC)c1O at 100 nM
enzastaurin: Cn1cc(C2=C(c3cn(C4CCN(Cc5ccccn5)CC4)c4ccccc34)C(=O)NC2=O)c2ccccc21 at 4000 nM
BI-78D3: O=c1[nH]nc(Sc2ncc([N+](=O)[O-])s2)n1-c1ccc2c(c1)OCCO2 at 1000 nM
TCS401: O=C(O)C(=O)Nc1sc2c(c1C(=O)O)CCNC2 at 8330 nM
STA-4783: CN(NC(=O)CC(=O)NN(C)C(=S)c1ccccc1)C(=S)c1ccccc1 at 30 nM

| # | Combination | G-361 | MEL-HO | A375 | UACC-62 | SK-MEL-28 | IST-MEL1 | C32 | A2058 | A101D | WM451Lu |
|---|---|---|---|---|---|---|---|---|---|---|---|
| 1 | enzastaurin and palbociclib | 193 | 152 | 219 | 194 | 217 | 143 | 92.4 | 156 | 420 | 171 |
| 2 | TCS401 and sunitinib | 175 | 242 | 178 | 215 | 254 | 129 | 105 | 176 | 813 | 206 |
| 3 | etoposide and STA-4783 | 375 | 156 | - | 286 | 204 | 435 | 2860 | 3270 | 133 | 133 |
| 4 | TCS401 and enzastaurin | 173 | 89.1 | 70.9 | 250 | 138 | 91.9 | 145 | 121 | 371 | 130 |
| 5 | STA-4783 and BI-78D3 | 483 | 89.8 | - | 220 | 316 | 118 | 2380 | 3930 | 184 | 150 |
| 6 | enzastaurin and veliparib | 144 | 114 | 115 | 232 | 415 | 80.1 | 113 | 257 | 148 | 38.5 |
| 7 | TCS401 and veliparib | 17.2 | 43.6 | 12.0 | 155 | 133 | 108 | 111 | 127 | 140 | 85.7 |
| 8 | enzastaurin and BI-78D3 | 113 | 119 | 63.8 | 189 | 33.0 | 131 | 101 | 166 | 62.0 | 66.8 |
| 9 | palbociclib and STA-4783 | 407 | 80.7 | - | 101 | 101 | 487 | 2670 | 1760 | 227 | 253 |
| 10 | palbociclib and TCS401 | 101 | 415 | 87.9 | 178 | 179 | 135 | 92.4 | 75.5 | 225 | 95.9 |
| 11 | etoposide and palbociclib | 117 | 344 | 463 | 354 | 225 | 159 | 783 | 184 | 92.2 | 55.5 |
| 12 | veliparib and vincristine | 318 | 358 | 104 | 258 | 480 | 135 | 642 | 1710 | 404 | 472 |
| 13 | veliparib and etoposide | 28.1 | 106 | 94.3 | 195 | 112 | 92.8 | 87.9 | 275 | 165 | 59.5 |
| 14 | vincristine and BI-78D3 | 143 | 318 | 38.4 | 226 | 149 | 68.0 | 117 | 286 | 225 | 1170 |
| 15 | TCS401 and etoposide | 28.4 | 135 | 30.3 | 124 | 48.6 | - | 98.1 | 142 | 86.6 | 22.1 |
| 16 | STA-4783 and sunitinib | 414 | 72.0 | - | 195 | 118 | 827 | 1130 | 2730 | 122 | 829 |
| 17 | etoposide and BI-78D3 | 70.4 | 39.6 | 591 | 200 | 89.1 | 104 | 228 | 135 | 98.8 | 131 |
| 18 | vincristine and enzastaurin | 237 | 99.8 | 166 | 391 | 774 | 154 | 86.8 | 1180 | 257 | 489 |
| 19 | palbociclib and veliparib | 97.6 | 99.0 | 65.5 | 308 | 240 | 88.0 | 144 | 186 | 114 | 117 |
| 20 | sunitinib and BI-78D3 | 136 | 83.1 | 117 | 186 | 61.4 | 153 | 168 | 226 | 106 | 144 |
| 21 | palbociclib and vincristine | 142 | 248 | 461 | 333 | 132 | 98.0 | 171 | 2390 | 150 | 108 |
| 22 | sunitinib and veliparib | 231 | 127 | 76.1 | 105 | 125 | 91.6 | 121 | 258 | 185 | 42.5 |
| 23 | enzastaurin and sunitinib | 154 | 49.9 | 118 | 281 | 64.0 | 75.3 | 36.6 | 375 | 82.7 | 86.5 |
| 24 | sunitinib and palbociclib | 57.1 | 110 | 128 | 233 | 153 | 127 | 103 | 156 | 100 | 95.8 |
| 25 | vincristine and TCS401 | 253 | 53.0 | 79.4 | 380 | 961 | 251 | 111 | 4460 | 283 | 859 |
| 26 | veliparib and STA-4783 | 407 | 179 | - | 175 | 267 | 406 | 2530 | 2380 | 371 | 42.7 |
| 27 | vincristine and STA-4783 | 349 | 78.8 | - | 188 | 500 | 164 | 3800 | 2950 | 289 | 609 |
| 28 | veliparib and BI-78D3 | 99.3 | 144 | 46.3 | 247 | 208 | 200 | 74.1 | 126 | 83.6 | 133 |
| 29 | vincristine and sunitinib | 66.2 | 75.6 | 55.6 | 205 | 136 | 40.2 | 244 | 230 | 120 | 621 |
| 30 | etoposide and vincristine | 143 | 382 | 46.5 | 241 | 81.2 | 76.4 | 337 | 474 | 99.0 | 75.6 |
| 31 | etoposide and sunitinib | 71.5 | 161 | 157 | 151 | 38.1 | 113 | - | 171 | 118 | 57.4 |
| 32 | TCS401 and BI-78D3 | 49.1 | 40.4 | 43.3 | 79.2 | 101 | 20.6 | 108 | 106 | 165 | 44.9 |
| 33 | palbociclib and BI-78D3 | 138 | 102 | 64.7 | 180 | 133 | 225 | 52.3 | 85.5 | 219 | 63.4 |
| 34 | enzastaurin and etoposide | 46.4 | 78.9 | 76.4 | 220 | 118 | 175 | 91.0 | 228 | 66.6 | 156 |
| 35 | TCS401 and STA-4783 | 142 | 95.4 | 27.9 | 302 | 822 | 119 | 336 | 1700 | 185 | 51.5 |

2 of the entries, repeated:

* sunitinib and veliparib : G-361: 231; MEL-HO: 127; A375: 76.1; UACC-62: 105; SK-MEL-28: 125; IST-MEL1: 91.6; C32: 121; A2058: 258; A101D: 185; WM451Lu: 42.5
* enzastaurin and etoposide : G-361: 46.4; MEL-HO: 78.9; A375: 76.4; UACC-62: 220; SK-MEL-28: 118; IST-MEL1: 175; C32: 91.0; A2058: 228; A101D: 66.6; WM451Lu: 156